Data published in publication PMC5387054, “Zinc-Dependent Transcriptional Regulation in Paracoccus denitrificans”.
Construct, isoform or probe ends are uncertain for at least one entry. Weaker means in comparison with the reference protein, sequence or condition of that experiment. Where a protein sequence is shown, tags need not be part of it.

Target: T1, Zur (Paracoccus denitrificans) (UniProt A1B9K9)
T1 sequence (looked up): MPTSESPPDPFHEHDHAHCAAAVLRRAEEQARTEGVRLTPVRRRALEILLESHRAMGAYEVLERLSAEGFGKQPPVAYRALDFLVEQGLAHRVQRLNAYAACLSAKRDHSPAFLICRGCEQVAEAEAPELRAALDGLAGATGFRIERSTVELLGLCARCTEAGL
Experiment: EMSA
Conditions: 100 uM EDTA, EMSA: 10 mM Tris pH 8.0, 10 mM NaCl, 100 mM K-glutamate, 50 mM KCl, 1 mM DTT, 1.07 ug/ml BSA, 0.1 uM DNA, 0-20 uM Zur, 25 uM ZnCl2, 100 uM EDTA, 30 min room temperature, recombinant protein, residues 1-164, protein details: MBP (pMAL-c5X) removed by Factor Xa, probe letters rebuilt from the primers and the genome

Measured: binding result

CGGCAAGGACAAGGGAAGAAGGTCGGATCATGGCGAGACTCACTTGCGGAAACGCCAAGGTTATTTATGTTATATCGTAACCCGTCAAGCAAAAATGTAACGATATAACATCATGCCCACTTCGGAATCCCCGCCTGACCCGTTTCACG (double strand) [zur/znuA promoter (149 bp)]
binds more weakly: 10 uM apo-Zur + 25 uM Cu2+, same as apo | 10 uM apo-Zur + 25 uM Fe2+, same as apo | 10 uM apo-Zur + 25 uM Mn2+, same as apo | 10 uM apo-Zur + 25 uM Ni2+, same as apo | 10 uM apo-Zur, no metal

TTCCGGACAAAATGTCCAGCTTTTGCTTCACTTGACTTTCATCAATGAGCGACTCACGCTTGCCGGACAGTGAGGTCTTATCGGAAATAACAGATAGGGGACCCGCGTCATGAGCGAAATCATGACCAAGAACATGGCCCGGAACGTCTTCTA (double strand) [norC promoter]
binds more weakly: 25 uM Zn2+, shift begins ~5 uM Zur, weakest target but above negative control
